Earlier results as cited in patent US20070264667A1, “Method and system for assaying transferase activity” (priority 2003, published 2007).

System: cyclin-dependent protein kinase (CDPK)
Conditions: ref (21)

CC[C@H](CO)Nc1nc(NCc2ccccc2)c2ncn(C(C)C)c2n1 [Roscovitine]
selectivity towards CDPK than any other kinase: 100 fold
